Laboratory results as given in PMC9073322.
These are yes or no findings as the source states them, for the method shown. For some assays here: In cells and extracts the contact can be indirect. Some binding calls cover weakened binding; strength is not graded here. Where a sequence is shown, tags or fusion partners need not be part of it.

How the values were obtained:
[1] = target: T1, cLUC-d14^S97A (Arabidopsis thaliana), Q9SQR3; assay: split reporter; split-LUC complementation in N. benthamiana Nbd14 leaves; SMXL-nLUC and cLUC-D14 fusions transiently co-expressed with mCherry; luminescence before and 1 h after 10 μM GR24^5DS, normalized against mCherry fluorescence; settings: remark: other sources report otherwise
T1 chain: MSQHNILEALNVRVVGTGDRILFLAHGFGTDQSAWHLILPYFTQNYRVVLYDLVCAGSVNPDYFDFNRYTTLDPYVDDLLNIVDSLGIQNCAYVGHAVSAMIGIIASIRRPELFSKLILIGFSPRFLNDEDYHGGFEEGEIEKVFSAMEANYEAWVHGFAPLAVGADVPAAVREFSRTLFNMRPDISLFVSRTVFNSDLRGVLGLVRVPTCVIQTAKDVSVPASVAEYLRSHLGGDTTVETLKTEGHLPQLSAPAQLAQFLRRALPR

[2] = target: T2, cLUC-D14 (Arabidopsis thaliana) (UniProt Q9SQR3); assay: as above
T2 sequence: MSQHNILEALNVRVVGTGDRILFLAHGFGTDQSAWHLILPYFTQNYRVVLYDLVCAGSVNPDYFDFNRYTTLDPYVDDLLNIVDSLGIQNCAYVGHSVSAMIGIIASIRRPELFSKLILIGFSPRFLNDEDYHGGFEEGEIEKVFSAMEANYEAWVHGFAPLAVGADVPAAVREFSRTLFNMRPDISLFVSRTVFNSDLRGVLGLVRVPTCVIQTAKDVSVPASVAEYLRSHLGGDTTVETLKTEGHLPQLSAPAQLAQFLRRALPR

[3] = target: T3, cLUC-d14^seto (Arabidopsis thaliana) (UniProt Q9SQR3); assay: as above
T3 sequence: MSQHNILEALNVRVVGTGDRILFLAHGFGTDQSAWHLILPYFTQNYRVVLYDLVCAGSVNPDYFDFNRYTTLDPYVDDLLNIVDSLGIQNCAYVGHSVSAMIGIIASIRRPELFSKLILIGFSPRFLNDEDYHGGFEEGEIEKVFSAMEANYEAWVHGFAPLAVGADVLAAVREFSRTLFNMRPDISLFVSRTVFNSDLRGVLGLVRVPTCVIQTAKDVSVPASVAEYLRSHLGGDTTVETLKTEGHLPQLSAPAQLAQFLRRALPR

[4] = target: T4, cLUC-d14^S97A (Arabidopsis thaliana) (UniProt Q9SQR3); assay: as above
T4 sequence: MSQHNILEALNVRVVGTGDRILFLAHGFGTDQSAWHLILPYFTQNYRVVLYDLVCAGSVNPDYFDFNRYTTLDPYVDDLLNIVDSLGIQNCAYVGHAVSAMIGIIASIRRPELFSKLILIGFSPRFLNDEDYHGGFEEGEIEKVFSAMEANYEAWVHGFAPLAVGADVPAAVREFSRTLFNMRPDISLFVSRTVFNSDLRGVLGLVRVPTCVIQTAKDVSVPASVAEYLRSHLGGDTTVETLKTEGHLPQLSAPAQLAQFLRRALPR

[5] = target: T5, DWARF14 (D14) fused to GAL4-BD (Arabidopsis thaliana) (UniProt Q9SQR3); assay: two-hybrid; D14 or d14^seto fused to GAL4-BD, SMXL proteins and domains fused to GAL4-AD; serial dilutions of yeast on selective medium (-His low stringency, -His -Ade higher stringency) supplemented with 2 μM GR24^5DS
T5 sequence: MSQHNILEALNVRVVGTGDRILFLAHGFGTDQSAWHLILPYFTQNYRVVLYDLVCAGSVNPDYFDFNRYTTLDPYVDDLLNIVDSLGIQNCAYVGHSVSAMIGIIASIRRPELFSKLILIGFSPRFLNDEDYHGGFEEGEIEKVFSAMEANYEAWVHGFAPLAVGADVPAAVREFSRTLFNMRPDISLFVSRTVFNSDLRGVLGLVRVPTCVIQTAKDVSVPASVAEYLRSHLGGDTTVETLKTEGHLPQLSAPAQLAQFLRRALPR

B1: SMXL7-nLUC, O80875 1-1002 (protein)
chain: MPTPVTTARQCLTEETARALDDAVSVARRRSHAQTTSLHAVSGLLTMPSSILREVCISRAAHNTPYSSRLQFRALELCVGVSLDRLPSSKSTPTTTVEEDPPVSNSLMAAIKRSQATQRRHPETYHLHQIHGNNNTETTSVLKVELKYFILSILDDPIVSRVFGEAGFRSTDIKLDVLHPPVTSQFSSRFTSRSRIPPLFLCNLPESDSGRVRFGFPFGDLDENCRRIGEVLARKDKKNPLLVGVCGVEALKTFTDSINRGKFGFLPLEISGLSVVSIKISEVLVDGSRIDIKFDDLGRLKSGMVLNLGELKVLASDVFSVDVIEKFVLKLADLLKLHREKLWFIGSVSSNETYLKLIERFPTIDKDWNLHLLPITSSSQGLYPKSSLMGSFVPFGGFFSSTSDFRIPSSSSMNQTLPRCHLCNEKYEQEVTAFAKSGSMIDDQCSEKLPSWLRNVEHEHEKGNLGKVKDDPNVLASRIPALQKKWDDICQRIHQTPAFPKLSFQPVRPQFPLQLGSSSQTKMSLGSPTEKIVCTRTSESFQGMVALPQNPPHQPGLSVKISKPKHTEDLSSSTTNSPLSFVTTDLGLGTIYASKNQEPSTPVSVERRDFEVIKEKQLLSASRYCKDFKSLRELLSRKVGFQNEAVNAISEIVCGYRDESRRRNNHVATTSNVWLALLGPDKAGKKKVALALAEVFCGGQDNFICVDFKSQDSLDDRFRGKTVVDYIAGEVARRADSVVFIENVEKAEFPDQIRLSEAMRTGKLRDSHGREISMKNVIVVATISGSDKASDCHVLEEPVKYSEERVLNAKNWTLQIKLADTSNVNKNGPNKRRQEEAETEVTELRALKSQRSFLDLNLPVDEIEANEDEAYTMSENTEAWLEDFVEQVDGKVTFKLIDFDELAKNIKRNILSLFHLSFGPETHLEIENDVILKILAALRWSSDEEKTFDQWLQTVLAPSFAKARQKCVPAAPFSVKLVASRESPAEEETTGIQQFPARVEVI
For B1, the binding [1] was “binds”.

B2: SMXL2-nLUC (protein, UniProt Q9M0C5 1-924)
chain: MRADLITIQQTLTPEAATVLNQSIAEATRRNHGHTTPLHVAATLLSSSSGYLRQACIKSHPNSSHPLQCRALELCFSVALERLPTTSTTTTTTSSSSSSSPSQTQEPLLSNALTAALKRAQAHQRRGCPEQQQQPLLAVKVELEQLIISILDDPSVSRVMREASFSSPAVKSAIEQSLIGNSVSNSRQTGSPGIINPSAIGFGYRSVPAPVNRNLYLNPRLQQPGVGMQSGMMIQRTDEAKRVIEIMIRTRKRNPVLVGDSEPHILVKEILEKIENGEFSDGALRNFQVIRLEKELVSQLATRLGEISGLVETRIGGGGVVLDLGDLKWLVEHPAANGGAVVEMRKLLERYKGRLCFIGTATCETYLRCQVYYPSMENDWDLQAIPIAAKSSLPAIFPRLGSNNNNNAMLLSNNIISIESISPTRSFQIPMSKMSCCSRCLQSYENDVAKVEKDLTGDNRSVLPQWLQNAKANDDGDKKLTKDQQIVELQKKWNDLCLRLHPNQSVSERIAPSTLSMMKINTRSDITPPGSPVGTDLVLGRPNRGLSSPEKKTREARFGKLGDSFDIDLFKKLLKGLAKSVWWQHDAASSVAAAITECKHGNGKSKGDIWLMFTGPDRAGKSKMASALSDLVSGSQPITISLGSSSRMDDGLNIRGKTALDRFAEAVRRNPFAVIVLEDIDEADILLRNNVKIAIERGRICDSYGREVSLGNVIIILTANSSLGSAKNVASIDETRLESLVNKGWELRLSVCNSSKTRKRKPNWLYSDNDQTKQRKEICFDLNEAAEFDSSSDVTVEHDQEDNGNLVHKLVGLVDDAILFRPVDFDSIKSKTAESLKKRFSNGLADGLTVEIEDDALERIAGAIWLSKISLEEWLEEAMGSSLNSVKSRVSSSEDSVIRIELEDDLNDRISGGYLPSSIRTVVV
For B2, the binding [2] was “binds”, the binding [3] was “binds” and the binding [4] was “binds”.

B3: SMAX1-LIKE 2 (SMXL2) in the yeast two-hybrid assay (protein, UniProt Q9M0C5 1-924)
chain: MRADLITIQQTLTPEAATVLNQSIAEATRRNHGHTTPLHVAATLLSSSSGYLRQACIKSHPNSSHPLQCRALELCFSVALERLPTTSTTTTTTSSSSSSSPSQTQEPLLSNALTAALKRAQAHQRRGCPEQQQQPLLAVKVELEQLIISILDDPSVSRVMREASFSSPAVKSAIEQSLIGNSVSNSRQTGSPGIINPSAIGFGYRSVPAPVNRNLYLNPRLQQPGVGMQSGMMIQRTDEAKRVIEIMIRTRKRNPVLVGDSEPHILVKEILEKIENGEFSDGALRNFQVIRLEKELVSQLATRLGEISGLVETRIGGGGVVLDLGDLKWLVEHPAANGGAVVEMRKLLERYKGRLCFIGTATCETYLRCQVYYPSMENDWDLQAIPIAAKSSLPAIFPRLGSNNNNNAMLLSNNIISIESISPTRSFQIPMSKMSCCSRCLQSYENDVAKVEKDLTGDNRSVLPQWLQNAKANDDGDKKLTKDQQIVELQKKWNDLCLRLHPNQSVSERIAPSTLSMMKINTRSDITPPGSPVGTDLVLGRPNRGLSSPEKKTREARFGKLGDSFDIDLFKKLLKGLAKSVWWQHDAASSVAAAITECKHGNGKSKGDIWLMFTGPDRAGKSKMASALSDLVSGSQPITISLGSSSRMDDGLNIRGKTALDRFAEAVRRNPFAVIVLEDIDEADILLRNNVKIAIERGRICDSYGREVSLGNVIIILTANSSLGSAKNVASIDETRLESLVNKGWELRLSVCNSSKTRKRKPNWLYSDNDQTKQRKEICFDLNEAAEFDSSSDVTVEHDQEDNGNLVHKLVGLVDDAILFRPVDFDSIKSKTAESLKKRFSNGLADGLTVEIEDDALERIAGAIWLSKISLEEWLEEAMGSSLNSVKSRVSSSEDSVIRIELEDDLNDRISGGYLPSSIRTVVV
In the case of B3, the binding [5] is reported as “binds”.
